{"sequences": {"note": "Amino acid sequences for entries named in this document (tags omitted). A change or cut given only in a name is not applied to a line headed by its entry.", "UniProt P36888": "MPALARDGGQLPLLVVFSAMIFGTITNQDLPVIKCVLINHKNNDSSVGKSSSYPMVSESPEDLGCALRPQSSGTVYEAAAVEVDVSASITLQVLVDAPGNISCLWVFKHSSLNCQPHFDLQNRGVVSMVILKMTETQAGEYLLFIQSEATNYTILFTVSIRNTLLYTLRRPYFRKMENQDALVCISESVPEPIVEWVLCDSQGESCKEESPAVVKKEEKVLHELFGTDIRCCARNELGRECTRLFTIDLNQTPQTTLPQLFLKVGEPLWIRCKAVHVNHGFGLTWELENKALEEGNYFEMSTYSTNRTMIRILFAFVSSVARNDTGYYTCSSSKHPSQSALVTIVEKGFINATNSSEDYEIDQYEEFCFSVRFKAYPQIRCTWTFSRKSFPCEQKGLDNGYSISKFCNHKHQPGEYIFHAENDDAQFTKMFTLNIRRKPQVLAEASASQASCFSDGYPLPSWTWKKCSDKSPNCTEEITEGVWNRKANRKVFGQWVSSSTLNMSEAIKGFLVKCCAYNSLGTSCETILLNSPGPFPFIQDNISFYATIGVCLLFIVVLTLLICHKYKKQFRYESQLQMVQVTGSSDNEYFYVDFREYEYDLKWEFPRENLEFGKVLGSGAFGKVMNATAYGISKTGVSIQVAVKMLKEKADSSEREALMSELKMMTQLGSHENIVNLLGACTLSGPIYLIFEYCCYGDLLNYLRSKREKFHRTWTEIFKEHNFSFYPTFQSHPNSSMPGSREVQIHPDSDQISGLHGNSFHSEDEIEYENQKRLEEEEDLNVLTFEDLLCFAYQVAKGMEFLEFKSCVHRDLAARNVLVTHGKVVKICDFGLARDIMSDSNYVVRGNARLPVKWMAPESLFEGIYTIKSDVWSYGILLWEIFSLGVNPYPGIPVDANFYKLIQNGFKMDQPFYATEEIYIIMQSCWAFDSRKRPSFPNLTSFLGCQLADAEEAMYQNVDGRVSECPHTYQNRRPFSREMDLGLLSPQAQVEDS"}, "source": "paper PMC4924701", "molecular_target": "T1, FLAG-tagged GADS (GRB2-related adaptor protein 2, GRAP2) (human) (UniProt O75791)", "T1 sequence": "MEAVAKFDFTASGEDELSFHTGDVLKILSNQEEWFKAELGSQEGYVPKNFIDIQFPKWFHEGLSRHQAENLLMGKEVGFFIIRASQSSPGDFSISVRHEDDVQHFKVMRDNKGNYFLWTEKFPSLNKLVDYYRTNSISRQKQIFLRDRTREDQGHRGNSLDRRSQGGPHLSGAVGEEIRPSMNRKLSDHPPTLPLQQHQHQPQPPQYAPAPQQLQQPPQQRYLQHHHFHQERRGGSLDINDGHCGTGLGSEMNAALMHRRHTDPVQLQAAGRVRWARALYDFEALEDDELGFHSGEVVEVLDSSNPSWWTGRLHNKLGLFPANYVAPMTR", "assay": "co-IP; COS-1 cells co-transfected with FLAG-GADS and FLT3 plasmids, stimulated or not with 100 ng/ml FL for five minutes before lysis; anti-FLAG immunoprecipitation, Western blotting", "note": "Results are given in words; binding and its absence hold for the method and conditions named. Binding seen in cells or lysates may run through a third protein. A result given as binding can be weak or reduced; the word gives no strength. Where a sequence is shown, tags or fusion partners need not be part of it.", "data": [{"substance": "FLT3-ITD (internal tandem duplication mutant) (from UniProt P36888) (receptor)", "values": [{"measurement": "binding", "value": "binds"}]}]}
